Results published in publication PMC12189954.
Results are given in words; binding and its absence hold for the method and conditions named. Binding seen in cells or lysates may run through a third protein. These calls come from enrichment with a bait or labelling near it, and not all partners need be listed. Where a sequence is shown, tags or fusion partners need not be part of it.

By UniProt entry, the sequences of proteins in these tests, tags left out. Residues count along the entry.
UniProt Q9ERG0: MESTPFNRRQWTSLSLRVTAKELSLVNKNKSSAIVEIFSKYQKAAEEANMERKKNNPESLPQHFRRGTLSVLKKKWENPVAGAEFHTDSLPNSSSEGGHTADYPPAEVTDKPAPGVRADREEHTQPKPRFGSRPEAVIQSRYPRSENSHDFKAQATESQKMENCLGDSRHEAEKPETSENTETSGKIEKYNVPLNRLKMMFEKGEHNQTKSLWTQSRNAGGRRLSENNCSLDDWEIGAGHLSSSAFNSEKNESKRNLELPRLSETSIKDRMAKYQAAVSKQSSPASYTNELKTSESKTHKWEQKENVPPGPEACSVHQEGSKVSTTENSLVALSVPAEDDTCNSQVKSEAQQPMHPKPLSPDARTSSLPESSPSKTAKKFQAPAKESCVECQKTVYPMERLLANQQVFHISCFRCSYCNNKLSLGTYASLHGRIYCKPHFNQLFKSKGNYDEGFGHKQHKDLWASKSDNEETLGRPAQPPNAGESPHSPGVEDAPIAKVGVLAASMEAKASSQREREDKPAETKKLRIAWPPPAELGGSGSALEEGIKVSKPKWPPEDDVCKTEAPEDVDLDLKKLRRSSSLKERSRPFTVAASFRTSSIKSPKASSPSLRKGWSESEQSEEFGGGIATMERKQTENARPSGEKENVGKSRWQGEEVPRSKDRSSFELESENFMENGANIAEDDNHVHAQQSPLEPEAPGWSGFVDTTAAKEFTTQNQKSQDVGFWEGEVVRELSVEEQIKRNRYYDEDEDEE
UniProt Q61937: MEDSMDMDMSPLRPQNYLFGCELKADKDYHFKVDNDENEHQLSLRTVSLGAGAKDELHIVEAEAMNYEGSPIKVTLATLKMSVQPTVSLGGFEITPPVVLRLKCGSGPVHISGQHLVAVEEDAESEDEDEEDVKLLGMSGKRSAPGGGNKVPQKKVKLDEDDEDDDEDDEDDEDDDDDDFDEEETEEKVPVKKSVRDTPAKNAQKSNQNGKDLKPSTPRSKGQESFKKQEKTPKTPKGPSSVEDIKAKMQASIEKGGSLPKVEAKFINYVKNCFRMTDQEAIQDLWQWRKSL
UniProt P09103, residues 20-509: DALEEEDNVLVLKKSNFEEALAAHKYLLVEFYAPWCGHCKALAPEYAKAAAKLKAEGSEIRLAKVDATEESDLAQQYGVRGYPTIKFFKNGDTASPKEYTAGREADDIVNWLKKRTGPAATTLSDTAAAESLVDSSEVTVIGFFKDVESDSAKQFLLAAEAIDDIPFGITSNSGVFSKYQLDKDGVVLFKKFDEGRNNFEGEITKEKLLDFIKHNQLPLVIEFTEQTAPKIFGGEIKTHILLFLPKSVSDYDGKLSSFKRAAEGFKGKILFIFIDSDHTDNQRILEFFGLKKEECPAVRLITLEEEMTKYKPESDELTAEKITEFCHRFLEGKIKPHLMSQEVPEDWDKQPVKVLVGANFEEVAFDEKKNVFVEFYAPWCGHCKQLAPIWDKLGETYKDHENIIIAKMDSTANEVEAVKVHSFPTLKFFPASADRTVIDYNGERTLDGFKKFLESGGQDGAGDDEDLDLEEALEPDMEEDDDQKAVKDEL
UniProt P42227: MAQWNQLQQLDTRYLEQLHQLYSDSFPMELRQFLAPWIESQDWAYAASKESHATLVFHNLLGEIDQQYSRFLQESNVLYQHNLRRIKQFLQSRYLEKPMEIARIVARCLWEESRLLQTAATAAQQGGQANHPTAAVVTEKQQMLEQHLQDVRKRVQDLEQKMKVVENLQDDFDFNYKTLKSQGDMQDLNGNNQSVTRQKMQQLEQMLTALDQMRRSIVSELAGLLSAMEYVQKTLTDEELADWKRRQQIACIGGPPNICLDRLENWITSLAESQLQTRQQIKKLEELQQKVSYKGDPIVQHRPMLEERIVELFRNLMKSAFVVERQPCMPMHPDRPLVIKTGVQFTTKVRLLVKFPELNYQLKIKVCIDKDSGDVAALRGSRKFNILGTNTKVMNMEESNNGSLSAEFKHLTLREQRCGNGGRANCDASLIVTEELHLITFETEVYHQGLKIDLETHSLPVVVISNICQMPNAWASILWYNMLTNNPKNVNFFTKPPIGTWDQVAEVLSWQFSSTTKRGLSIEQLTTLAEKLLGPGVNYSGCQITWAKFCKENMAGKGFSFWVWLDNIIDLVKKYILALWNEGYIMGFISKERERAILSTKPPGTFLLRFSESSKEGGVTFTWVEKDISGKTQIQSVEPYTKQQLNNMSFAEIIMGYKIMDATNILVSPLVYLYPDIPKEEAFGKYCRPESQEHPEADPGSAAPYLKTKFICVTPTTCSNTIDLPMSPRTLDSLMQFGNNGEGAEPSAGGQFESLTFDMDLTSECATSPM
UniProt P57780: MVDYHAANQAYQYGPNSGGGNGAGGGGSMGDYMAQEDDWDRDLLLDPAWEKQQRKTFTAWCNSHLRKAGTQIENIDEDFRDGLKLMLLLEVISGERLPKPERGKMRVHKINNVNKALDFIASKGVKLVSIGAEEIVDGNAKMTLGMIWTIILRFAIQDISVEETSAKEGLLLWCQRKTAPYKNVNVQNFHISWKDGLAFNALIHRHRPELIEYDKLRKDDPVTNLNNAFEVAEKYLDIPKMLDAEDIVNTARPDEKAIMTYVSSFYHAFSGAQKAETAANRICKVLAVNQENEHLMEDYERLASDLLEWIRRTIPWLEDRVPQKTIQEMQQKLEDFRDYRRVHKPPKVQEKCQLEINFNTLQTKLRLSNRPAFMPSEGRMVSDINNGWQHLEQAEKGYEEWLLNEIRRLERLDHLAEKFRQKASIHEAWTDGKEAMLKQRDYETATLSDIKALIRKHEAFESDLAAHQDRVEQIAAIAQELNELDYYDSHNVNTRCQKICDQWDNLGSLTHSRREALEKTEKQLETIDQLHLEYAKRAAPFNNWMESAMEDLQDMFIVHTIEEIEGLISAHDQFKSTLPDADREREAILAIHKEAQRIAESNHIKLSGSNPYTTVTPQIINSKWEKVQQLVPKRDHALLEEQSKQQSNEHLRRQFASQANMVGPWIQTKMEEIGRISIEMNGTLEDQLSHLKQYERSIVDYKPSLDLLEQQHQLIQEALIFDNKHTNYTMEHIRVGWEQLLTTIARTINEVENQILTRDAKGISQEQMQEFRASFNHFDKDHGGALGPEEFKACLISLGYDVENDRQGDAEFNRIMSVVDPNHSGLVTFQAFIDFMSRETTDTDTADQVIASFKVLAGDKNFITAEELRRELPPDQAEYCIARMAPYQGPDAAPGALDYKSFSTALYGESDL

Biological target: T1, Flag-YOD1 (ubiquitin thioesterase OTU1), expressed in HL-1 cells (UniProt Q8CB27)
T1 sequence: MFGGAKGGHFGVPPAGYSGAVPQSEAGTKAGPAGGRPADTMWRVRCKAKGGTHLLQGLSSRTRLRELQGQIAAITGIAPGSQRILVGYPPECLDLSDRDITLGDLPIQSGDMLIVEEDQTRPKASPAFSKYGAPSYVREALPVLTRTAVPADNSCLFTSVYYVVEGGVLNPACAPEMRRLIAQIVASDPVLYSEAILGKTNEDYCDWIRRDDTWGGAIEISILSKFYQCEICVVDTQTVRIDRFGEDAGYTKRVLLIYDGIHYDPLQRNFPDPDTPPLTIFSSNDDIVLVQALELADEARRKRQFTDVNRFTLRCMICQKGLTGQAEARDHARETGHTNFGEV
Assay: affinity purification with mass spectrometry; HL-1 cells transfected with Flag-vector or Flag-YOD1, Ang II stimulation (1 μM for 24 hours); anti-Flag antibodies and Protein G–Sepharose beads; bound proteins by LC-MS/MS (interactome)

binding, binds:
Lin-11 Isl-1 Mec-3 (LIM domain) and actin-binding protein 1 (LIMA1) (from UniProt Q9ERG0 1-753)
nucleophosmin (NPM1) (from UniProt Q61937 1-292)
protein disulfide isomerase (P4HB) (from UniProt P09103 20-509)
signal transducer and activator of transcription 3 (STAT3), endogenous in HL-1 cells (from UniProt P42227 1-770)
α-actinin 4 (ACTN4) (from UniProt P57780 1-912)
